# The list shows a part of the results.
# B1: GST-Gap1 (Streptococcus parasanguinis), A1C3L5 (protein)
# chain: MFYFVPSWYNGQRQWYYDTPWWFRVKNRMTFDDSVNQVKMFLQGQEEIGLMILNYQPQLRYFLHKQNIFGIYYWSFFDDIQNITRSYTKIIHLKDLNWPEGCEFLYSPFAVVVRLKGEIFAIVNYAEDGNLHSVSFQKNGKVTKDYIFDDRGFLSSILYYDIDERPLYQDYLNINGVWQVREFLKKENDPTPILMINDFSDQTFSKKYYNGWEELIKERLAIFQNNHVENEDVFVLASDTQHNQLVSSIFKEHRKIYSFFGNRFNLENLGQDRISINDATFLVVDTEKNEELLRKTCENLVFKSIPIVRLSPFDSRLRLGHSQTVKEQIIYFHIDNIELDELYSVIAIILELMTLHLDIELRIVTFRQDFQLDLLKTWIIDFIKTNHFEDLLFKQISEGENEIEDEGEIELSRIAMECFTNENQIIKCLDTARLVIDLGIEPDLYTQIASISAGIPQINRVSSDYVIHQKNGLVISDISKLSSAIEFYFDGLFNWNEALIYAVRKMSDYTSGKILKQWKGMLKKK
# How the values were obtained:
# Assay in all cases: glycan array binding signal (z-score within array); higher = stronger binding
# Conditions in all cases: glycan notation: IUPAC condensed, linker removed
# [1] = biological target: Gal(b1-3)GlcNAc(b1-3)Gal(b1-4)GlcNAc(b1-2)[Gal(b1-3)GlcNAc(b1-3)Gal(b1-4)GlcNAc(b1-6)]Man(a1-6)[Gal(b1-3)GlcNAc(b1-3)Gal(b1-4)GlcNAc(b1-2)Man(a1-3)]Man(b1-4)GlcNAc(b1-4)[Fuc(a1-6)]GlcNAc
# Method in brief: (§1)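 The binding signal is a Z-score computed within each array and averaged over linkers. Arrays of the same protein sequence at different concentrations or buffers were also averaged together. Data originate from 3228 arrays in the Consortium for Functional Glycomics database, kept only where the protein sequence was available.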
# [2] = biological target: Gal(b1-3)GlcNAc(b1-3)Gal(b1-4)GlcNAc(b1-3)Gal(b1-4)GlcNAc(b1-2)[Gal(b1-3)GlcNAc(b1-3)Gal(b1-4)GlcNAc(b1-3)Gal(b1-4)GlcNAc(b1-6)]Man(a1-6)[Gal(b1-3)GlcNAc(b1-3)Gal(b1-4)GlcNAc(b1-3)Gal(b1-4)GlcNAc(b1-2)Man(a1-3)]Man(b1-4)GlcNAc(b1-4)[Fuc(a1-6)]GlcNAc
# Method in brief: as §1
# [3] = biological target: Gal(b1-3)GlcNAc(b1-3)Gal(b1-4)GlcNAc(b1-6)[Gal(b1-3)GlcNAc(b1-3)]Gal(b1-4)Glc
# Method in brief: as §1
# [4] = biological target: Gal(b1-3)GlcNAc(b1-3)Gal(b1-4)[Fuc(a1-3)]GlcNAc
# Method in brief: as §1
# [5] = biological target: Gal(b1-3)GlcNAc(b1-3)Gal(b1-4)[Fuc(a1-3)]GlcNAc(b1-6)[Gal(b1-3)GlcNAc(b1-3)]Gal(b1-4)Glc
# Method in brief: as §1
# [6] = biological target: Gal(b1-3)GlcNAc(b1-3)GalNAc
# Method in brief: as §1
# [7] = biological target: Gal(b1-3)GlcNAc(b1-6)Gal(b1-4)GlcNAc
# Method in brief: as §1
# [8] = biological target: Gal(b1-3)GlcNAc(b1-6)GalNAc
# Method in brief: as §1
# [9] = biological target: Gal(b1-3)GlcNAc(b1-6)[Gal(b1-3)]GalNAc
# Method in brief: as §1
# [10] = biological target: Gal(b1-3)GlcNAc6S
# Method in brief: as §1
# [11] = biological target: Gal(b1-3)[Fuc(a1-4)]GlcNAc
# Method in brief: as §1
# [12] = biological target: Gal(b1-3)[Fuc(a1-4)]GlcNAc(b1-2)Man
# Method in brief: as §1
# [13] = biological target: Gal(b1-3)[Fuc(a1-4)]GlcNAc(b1-2)Man(a1-3)[Gal(b1-3)[Fuc(a1-4)]GlcNAc(b1-2)Man(a1-6)]Man(b1-4)GlcNAc(b1-4)GlcNAc
# Method in brief: as §1
# [14] = biological target: Gal(b1-3)[Fuc(a1-4)]GlcNAc(b1-2)Man(a1-3)[Gal(b1-3)[Fuc(a1-4)]GlcNAc(b1-2)Man(a1-6)]Man(b1-4)GlcNAc(b1-4)[Fuc(a1-6)]GlcNAc
# Method in brief: as §1
# [15] = biological target: Gal(b1-3)[Fuc(a1-4)]GlcNAc(b1-3)Gal(b1-3)[Fuc(a1-4)]GlcNAc
# Method in brief: as §1
# [16] = biological target: Gal(b1-3)[Fuc(a1-4)]GlcNAc(b1-3)Gal(b1-4)GlcNAc
# Method in brief: as §1
# [17] = biological target: Gal(b1-3)[Fuc(a1-4)]GlcNAc(b1-3)Gal(b1-4)[Fuc(a1-3)]GlcNAc
# Method in brief: as §1
# [18] = biological target: Gal(b1-3)[Fuc(a1-4)]GlcNAc(b1-6)GalNAc
# Method in brief: as §1
# [19] = biological target: Gal(b1-3)[GlcNAc(b1-6)]GalNAc
# Method in brief: as §1
# [20] = biological target: Gal(b1-3)[Neu5Ac(a2-6)]GalNAc
# Method in brief: as §1
# [21] = biological target: Gal(b1-3)[Neu5Ac(a2-6)]GlcNAc(b1-4)Gal(b1-4)Glc
# Method in brief: as §1
# [22] = biological target: Gal(b1-3)[Neu5Ac(a2-6)]GlcNAc(b1-6)Gal(b1-4)Glc
# Method in brief: as §1
# [23] = biological target: Gal(b1-3)[Neu5Ac(b2-6)]GalNAc
# Method in brief: as §1
# [24] = biological target: Gal(b1-4)Gal
# Method in brief: as §1
# [25] = biological target: Gal(b1-4)GalNAc(a1-3)[Fuc(a1-2)]Gal(b1-4)GlcNAc
# Method in brief: as §1
# [26] = biological target: Gal(b1-4)GalNAc(b1-3)[Fuc(a1-2)]Gal(b1-4)GlcNAc
# Method in brief: as §1
# [27] = biological target: Gal(b1-4)Glc
# Method in brief: as §1
# [28] = biological target: Gal(b1-4)Glc6S
# Method in brief: as §1
# [29] = biological target: Gal(b1-4)GlcNAc
# Method in brief: as §1
# [30] = biological target: Gal(b1-4)GlcNAc(a1-6)Gal(b1-4)GlcNAc
# Method in brief: as §1
# [31] = biological target: Gal(b1-4)GlcNAc(b1-2)Man
# Method in brief: as §1
# [32] = biological target: Gal(b1-4)GlcNAc(b1-2)Man(a1-3)Man(b1-4)GlcNAc(b1-4)GlcNAc
# Method in brief: as §1
# [33] = biological target: Gal(b1-4)GlcNAc(b1-2)Man(a1-3)[Gal(b1-4)GlcNAc(b1-2)Man(a1-6)]Man(b1-4)GlcNAc(b1-4)GlcNAc
# Method in brief: as §1
# [34] = biological target: Gal(b1-4)GlcNAc(b1-2)Man(a1-3)[Gal(b1-4)GlcNAc(b1-2)Man(a1-6)]Man(b1-4)GlcNAc(b1-4)[Fuc(a1-6)]GlcNAc
# Method in brief: as §1
# [35] = biological target: Gal(b1-4)GlcNAc(b1-2)Man(a1-3)[Gal(b1-4)GlcNAc(b1-2)Man(a1-6)][Gal(b1-4)GlcNAc(b1-4)]Man(b1-4)GlcNAc(b1-4)[Fuc(a1-6)]GlcNAc
# Method in brief: as §1
# [36] = biological target: Gal(b1-4)GlcNAc(b1-2)Man(a1-3)[Gal(b1-4)GlcNAc(b1-2)Man(a1-6)][GlcNAc(b1-4)]Man(b1-4)GlcNAc(b1-4)[Fuc(a1-6)]GlcNAc
# Method in brief: as §1
# [37] = biological target: Gal(b1-4)GlcNAc(b1-2)Man(a1-3)[Gal(b1-4)GlcNAc(b1-2)][GlcNAc(b1-4)]Man(b1-4)GlcNAc(b1-4)GlcNAc
# Method in brief: as §1
binder,measurement,setting,value
B1,glycan array binding signal (z-score),[1],2.25
same,glycan array binding signal (z-score),[2],3.43
same,glycan array binding signal (z-score),[3],0.101
same,glycan array binding signal (z-score),[4],-0.205
same,glycan array binding signal (z-score),[5],0.114
same,glycan array binding signal (z-score),[6],-0.668
same,glycan array binding signal (z-score),[7],0.275
same,glycan array binding signal (z-score),[8],0.494
same,glycan array binding signal (z-score),[9],-0.464
same,glycan array binding signal (z-score),[10],0.02
same,glycan array binding signal (z-score),[11],-0.15
same,glycan array binding signal (z-score),[12],1.62
same,glycan array binding signal (z-score),[13],0.615
same,glycan array binding signal (z-score),[14],-0.186
same,glycan array binding signal (z-score),[15],-0.697
same,glycan array binding signal (z-score),[16],-0.318
same,glycan array binding signal (z-score),[17],-0.616
same,glycan array binding signal (z-score),[18],-0.119
same,glycan array binding signal (z-score),[19],-0.334
same,glycan array binding signal (z-score),[20],0.3
same,glycan array binding signal (z-score),[21],1.22
same,glycan array binding signal (z-score),[22],-0.547
same,glycan array binding signal (z-score),[23],-0.046
same,glycan array binding signal (z-score),[24],-0.435
same,glycan array binding signal (z-score),[25],0.045
same,glycan array binding signal (z-score),[26],0.011
same,glycan array binding signal (z-score),[27],-0.597
same,glycan array binding signal (z-score),[28],-0.399
same,glycan array binding signal (z-score),[29],0.236
same,glycan array binding signal (z-score),[30],-0.124
same,glycan array binding signal (z-score),[31],-0.326
same,glycan array binding signal (z-score),[32],0.353
same,glycan array binding signal (z-score),[33],-0.046
same,glycan array binding signal (z-score),[34],0.942
same,glycan array binding signal (z-score),[35],-0.639
same,glycan array binding signal (z-score),[36],-1.06
same,glycan array binding signal (z-score),[37],-0.399

# Some of the entries above, reformatted.
binder	measurement	setting	value
B1	glycan array binding signal (z-score)	[7]	0.275
same	glycan array binding signal (z-score)	[15]	-0.697

# From the supplement of paper PMC8728848
